From PMC8699254
These are yes or no findings as the source states them, for the method shown. In cells and extracts the contact can be indirect. A yes stands for co-enrichment or nearness to the bait. Other partners may have been found.

The chains behind the UniProt entries cited, without tags or fusion partners.
UniProt Q6ZS72: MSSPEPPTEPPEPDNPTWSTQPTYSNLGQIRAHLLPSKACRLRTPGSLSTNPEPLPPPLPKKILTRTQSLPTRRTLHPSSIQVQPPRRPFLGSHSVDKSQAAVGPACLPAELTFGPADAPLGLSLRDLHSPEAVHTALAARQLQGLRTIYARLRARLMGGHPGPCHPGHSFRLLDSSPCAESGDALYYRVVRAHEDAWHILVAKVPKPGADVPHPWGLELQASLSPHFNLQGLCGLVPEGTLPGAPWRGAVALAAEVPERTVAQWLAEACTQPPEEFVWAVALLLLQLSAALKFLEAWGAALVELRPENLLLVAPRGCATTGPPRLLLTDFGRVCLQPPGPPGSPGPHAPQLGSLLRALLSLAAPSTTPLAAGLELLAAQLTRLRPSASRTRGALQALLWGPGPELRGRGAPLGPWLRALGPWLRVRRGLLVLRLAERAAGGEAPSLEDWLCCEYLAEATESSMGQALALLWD
UniProt O43150: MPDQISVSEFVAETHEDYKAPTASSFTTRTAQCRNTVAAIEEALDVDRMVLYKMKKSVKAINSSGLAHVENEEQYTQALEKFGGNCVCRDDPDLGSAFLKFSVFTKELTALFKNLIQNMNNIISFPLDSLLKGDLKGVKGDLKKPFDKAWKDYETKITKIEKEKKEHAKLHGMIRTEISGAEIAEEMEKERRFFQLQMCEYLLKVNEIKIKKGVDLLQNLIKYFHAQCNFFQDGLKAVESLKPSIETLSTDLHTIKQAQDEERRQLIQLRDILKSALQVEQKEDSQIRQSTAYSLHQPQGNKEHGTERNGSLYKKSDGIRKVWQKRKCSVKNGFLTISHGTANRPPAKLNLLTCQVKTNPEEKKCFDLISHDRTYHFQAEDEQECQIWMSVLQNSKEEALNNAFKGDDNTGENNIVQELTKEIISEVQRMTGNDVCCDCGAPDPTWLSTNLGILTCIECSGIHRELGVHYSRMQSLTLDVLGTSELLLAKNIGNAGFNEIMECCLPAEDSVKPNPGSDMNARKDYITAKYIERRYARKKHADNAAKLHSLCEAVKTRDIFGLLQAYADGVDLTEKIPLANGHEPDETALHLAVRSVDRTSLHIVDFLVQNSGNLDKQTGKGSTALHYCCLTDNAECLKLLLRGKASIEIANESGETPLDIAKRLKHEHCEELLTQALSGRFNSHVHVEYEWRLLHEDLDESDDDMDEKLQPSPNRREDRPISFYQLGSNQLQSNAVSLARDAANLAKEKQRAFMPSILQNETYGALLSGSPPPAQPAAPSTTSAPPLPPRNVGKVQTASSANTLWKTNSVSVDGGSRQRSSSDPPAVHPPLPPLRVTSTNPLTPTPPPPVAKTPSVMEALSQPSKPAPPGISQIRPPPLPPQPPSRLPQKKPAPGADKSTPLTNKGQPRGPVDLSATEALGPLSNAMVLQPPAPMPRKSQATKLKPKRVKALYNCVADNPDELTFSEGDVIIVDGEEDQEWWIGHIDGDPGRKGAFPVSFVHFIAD
UniProt Q14289: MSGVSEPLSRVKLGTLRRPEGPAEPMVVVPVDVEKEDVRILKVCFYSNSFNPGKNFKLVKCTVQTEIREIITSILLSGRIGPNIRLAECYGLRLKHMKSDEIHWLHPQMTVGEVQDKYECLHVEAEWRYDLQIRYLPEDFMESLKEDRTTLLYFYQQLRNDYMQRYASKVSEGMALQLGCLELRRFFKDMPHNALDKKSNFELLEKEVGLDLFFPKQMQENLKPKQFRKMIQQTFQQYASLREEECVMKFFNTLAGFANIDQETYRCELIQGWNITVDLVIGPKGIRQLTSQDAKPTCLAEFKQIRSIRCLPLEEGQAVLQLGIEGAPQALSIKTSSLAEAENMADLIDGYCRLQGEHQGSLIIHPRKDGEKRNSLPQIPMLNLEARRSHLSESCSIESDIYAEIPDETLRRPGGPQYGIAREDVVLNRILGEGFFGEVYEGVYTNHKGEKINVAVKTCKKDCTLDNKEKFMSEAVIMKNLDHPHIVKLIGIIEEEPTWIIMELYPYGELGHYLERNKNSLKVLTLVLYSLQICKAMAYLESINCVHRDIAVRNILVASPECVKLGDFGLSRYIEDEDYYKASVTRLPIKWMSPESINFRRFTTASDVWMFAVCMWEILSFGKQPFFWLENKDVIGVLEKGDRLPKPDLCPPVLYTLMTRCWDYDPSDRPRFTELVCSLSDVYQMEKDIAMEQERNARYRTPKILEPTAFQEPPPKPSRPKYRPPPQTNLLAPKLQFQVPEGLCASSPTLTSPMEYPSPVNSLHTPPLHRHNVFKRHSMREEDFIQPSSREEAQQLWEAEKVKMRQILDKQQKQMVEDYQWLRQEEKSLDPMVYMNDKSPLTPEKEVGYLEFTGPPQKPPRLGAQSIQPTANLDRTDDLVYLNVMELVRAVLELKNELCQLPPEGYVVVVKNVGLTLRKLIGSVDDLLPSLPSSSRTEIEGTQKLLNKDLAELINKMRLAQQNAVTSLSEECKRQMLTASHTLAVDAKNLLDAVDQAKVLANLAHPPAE
UniProt Q9H792: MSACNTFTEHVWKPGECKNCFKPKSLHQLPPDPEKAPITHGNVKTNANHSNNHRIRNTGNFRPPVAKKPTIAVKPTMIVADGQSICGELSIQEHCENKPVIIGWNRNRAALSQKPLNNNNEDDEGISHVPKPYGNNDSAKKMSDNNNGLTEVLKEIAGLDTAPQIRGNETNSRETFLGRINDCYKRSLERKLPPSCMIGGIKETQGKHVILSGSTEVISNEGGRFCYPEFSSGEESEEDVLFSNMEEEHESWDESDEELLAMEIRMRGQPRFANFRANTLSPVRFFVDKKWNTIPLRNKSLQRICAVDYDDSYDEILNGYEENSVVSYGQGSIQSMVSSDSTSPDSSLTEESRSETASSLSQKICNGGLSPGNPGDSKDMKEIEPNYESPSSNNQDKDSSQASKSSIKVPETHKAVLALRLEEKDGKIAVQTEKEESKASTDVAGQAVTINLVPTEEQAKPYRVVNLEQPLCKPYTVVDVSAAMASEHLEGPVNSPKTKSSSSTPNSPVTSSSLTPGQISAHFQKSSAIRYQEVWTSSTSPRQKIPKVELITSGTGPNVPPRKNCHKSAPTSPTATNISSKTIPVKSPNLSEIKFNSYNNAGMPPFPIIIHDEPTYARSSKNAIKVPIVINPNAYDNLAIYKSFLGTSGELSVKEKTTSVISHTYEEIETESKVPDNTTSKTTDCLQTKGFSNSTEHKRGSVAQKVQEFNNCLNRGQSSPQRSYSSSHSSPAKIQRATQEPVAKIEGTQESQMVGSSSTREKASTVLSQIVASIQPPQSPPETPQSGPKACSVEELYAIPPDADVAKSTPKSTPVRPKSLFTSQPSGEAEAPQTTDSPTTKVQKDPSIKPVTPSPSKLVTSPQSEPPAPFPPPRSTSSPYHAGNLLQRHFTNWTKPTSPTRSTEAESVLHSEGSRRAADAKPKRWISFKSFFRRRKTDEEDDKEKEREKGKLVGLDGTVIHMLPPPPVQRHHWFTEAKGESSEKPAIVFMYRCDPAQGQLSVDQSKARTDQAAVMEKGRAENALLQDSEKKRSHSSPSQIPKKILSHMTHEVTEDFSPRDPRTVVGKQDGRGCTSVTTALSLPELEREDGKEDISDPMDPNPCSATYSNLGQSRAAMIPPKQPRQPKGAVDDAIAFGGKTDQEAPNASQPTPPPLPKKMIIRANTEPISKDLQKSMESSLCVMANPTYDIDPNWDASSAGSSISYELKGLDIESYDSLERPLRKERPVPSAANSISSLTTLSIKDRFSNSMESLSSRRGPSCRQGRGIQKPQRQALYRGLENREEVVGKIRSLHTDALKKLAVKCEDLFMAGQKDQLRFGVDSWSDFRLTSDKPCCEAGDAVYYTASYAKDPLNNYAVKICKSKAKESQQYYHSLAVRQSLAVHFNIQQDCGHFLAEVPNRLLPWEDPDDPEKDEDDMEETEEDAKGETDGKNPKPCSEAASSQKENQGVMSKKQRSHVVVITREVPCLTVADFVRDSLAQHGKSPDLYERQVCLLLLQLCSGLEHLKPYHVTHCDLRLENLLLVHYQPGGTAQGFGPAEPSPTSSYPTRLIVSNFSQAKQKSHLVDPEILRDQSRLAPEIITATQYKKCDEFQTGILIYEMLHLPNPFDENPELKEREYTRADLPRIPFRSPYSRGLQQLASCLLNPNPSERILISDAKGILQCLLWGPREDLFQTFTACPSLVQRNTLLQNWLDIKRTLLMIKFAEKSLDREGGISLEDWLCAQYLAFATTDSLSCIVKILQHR
UniProt P21796: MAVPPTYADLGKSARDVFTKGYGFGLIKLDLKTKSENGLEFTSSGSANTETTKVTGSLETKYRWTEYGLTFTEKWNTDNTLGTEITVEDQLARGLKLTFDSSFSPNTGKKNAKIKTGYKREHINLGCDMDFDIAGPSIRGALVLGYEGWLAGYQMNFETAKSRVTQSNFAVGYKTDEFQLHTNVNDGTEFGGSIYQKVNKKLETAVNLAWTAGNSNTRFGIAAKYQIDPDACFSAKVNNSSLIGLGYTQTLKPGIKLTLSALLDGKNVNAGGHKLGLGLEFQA

What follows are substances tested against Strep-tagged PEAK3 (ST-PEAK3), wild type (human) (UniProt Q6ZS72).

binding, binds:
ADP-ribosylation factor (ARF) GTPase-activating protein ASAP2 (from UniProt O43150 1-1006), FAK-like tyrosine kinase PYK2 (endogenous) (from UniProt Q14289 1-1009) (enzyme), PEAK1 (from UniProt Q9H792 1-1746), voltage-dependent anion-selective channel protein VDAC1 (from UniProt P21796 1-283)
